According to article PMC5047681:
These are yes or no findings as the source states them, for the method shown. In cells and extracts the contact can be indirect. Some binding calls cover weakened binding; strength is not graded here.

Target: T1, Ras-associated binding protein 11b (mouse (endogenous in primary hippocampal neurons)) (UniProt P46638)
T1 sequence: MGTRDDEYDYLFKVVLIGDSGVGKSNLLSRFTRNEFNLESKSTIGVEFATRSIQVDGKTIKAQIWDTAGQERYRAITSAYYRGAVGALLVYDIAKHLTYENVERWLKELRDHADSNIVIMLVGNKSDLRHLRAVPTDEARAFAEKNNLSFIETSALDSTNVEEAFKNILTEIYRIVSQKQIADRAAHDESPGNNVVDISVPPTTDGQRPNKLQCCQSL
Test: co-IP; lysate of DIV12 mouse hippocampal neurons (untreated controls or treated with 2 ng/ml TGF-β2); non-denaturing lysis buffer (50 mM Tris-HCl pH 7.4, 300 mM NaCl, 5 mM EDTA, 1% Triton X-100); anti-Rab11b or anti-KCC2 antibody on protein-A-Sepharose beads, overnight at 4°C; immunoblot for the other protein

B1: K+-Cl- co-transporter KCC2 (protein, UniProt Q91V14-2 1-1115)
chain: MLNNLTDCEDGDGGANPGDGNPKESSPFINSTDTEKGREYDGRNMALFEEEMDTSPMVSSLLSGLANYTNLPQGSREHEEAENNEGGKKKPVQAPRMGTFMGVYLPCLQNIFGVILFLRLTWVVGIAGIMESFCMVFICCSCTMLTAISMSAIATNGVVPAGGSYYMISRSLGPEFGGAVGLCFYLGTTFAGAMYILGTIEILLAYLFPAMAIFKAEDASGEAAAMLNNMRVYGTCVLTCMATVVFVGVKYVNKFALVFLGCVILSILAIYAGVIKSAFDPPNFPICLLGNRTLSRHGFDVCAKLAWEGNETVTTRLWGLFCSSRLLNATCDEYFTRNNVTEIQGIPGAASGLIKENLWSSYLTKGVIVERRGMPSVGLADGTPVDMDHPYVFSDMTSYFTLLVGIYFPSVTGIMAGSNRSGDLRDAQKSIPTGTILAIATTSAVYISSVVLFGACIEGVVLRDKFGEAVNGNLVVGTLAWPSPWVIVIGSFFSTCGAGLQSLTGAPRLLQAISRDGIVPFLQVFGHGKANGEPTWALLLTACICEIGILIASLDEVAPILSMFFLMCYMFVNLACAVQTLLRTPNWRPRFRYYHWTLSFLGMSLCLALMFICSWYYALVAMLIAGLIYKYIEYRGAEKEWGDGIRGLSLSAARYALLRLEEGPPHTKNWRPQLLVLVRVDQDQNVVHPQLLSLTSQLKAGKGLTIVGSVLEGTFLDNHPQAQRAEESIRRLMEAEKVKGFCQVVISSNLRDGVSHLIQSGGLGGLQHNTVLVGWPRNWRQKEDHQTWRNFIELVRETTAGHLALLVTKNVSMFPGNPERFSEGSIDVWWIVHDGGMLMLLPFLLRHHKVWRKCKMRIFTVAQMDDNSIQMKKDLTTFLYHLRITAEVEVVEMHESDISAYTYEKTLVMEQRSQILKQMHLTKNEREREIQSITDESRGSIRRKNPANPRLRLNVPEETACDNEEKPEEEVQLIHDQSAPSCPSSSPSPGEEPEGERETDPEVHLTWTKDKSVAEKNKGPSPVSSEGIKDFFSMKPEWENLNQSNVRRMHTAVRLNEVIVNKSRDAKLVLLNMPGPPRNRNGDENYMEFLEVLTEQLDRVMLVRGGGREVITIYS
Q: For B1, which binding is on record?
A: binds
